Measured data: PubChem BioAssay AID743121 (NCATS, 2013)

Aim: 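Partners whose loss is lethal together with topoisomerase I blockade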 (primary screen)
Cells: MDA-MB-231 cells, a human breast cancer line
Reagent: single siRNA against human genes, 20 nM siRNA (0.8 pmol per well)
Time to read-out: 120 h (drug added 48 h after transfection, read 72 h later)
Challenge: camptothecin 20 nM (about EC30) for 72 h; vehicle 0.1% DMSO in parallel plates
Measured: 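CellTiter-Glo ATP signal, scaled to control siRNA as percent viability; sensitisation given as log2 of untreated divided by camptothecin-treated viability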
Scale: log2 vehicle/camptothecin viability: higher = stronger sensitisation to camptothecin; viability with camptothecin and viability without drug: higher = more viable cells
Active means: 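Active genes have an RSA gene-level p-value below 0.001, computed from the ratios of their separate siRNAs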
This is a random part of about 26,000 reagents. Over the whole deposit, 167 (0.63%) are marked active. 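Calls are per gene from RSA p-values that are not deposited; an individual active-marked siRNA can sensitise only weakly.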 Reagents against one gene are numbered here. No sequences are given here.

no.	Target gene	reagent	log2 vehicle/camptothecin viability	viability with camptothecin (% of control)	viability without drug (% of control)	outcome
1	F5	1	-0.278	95.6	78.9	inactive
2	F5	2	-0.329	87.2	69.5	inactive
3	F5	3	-0.326	77.3	61.7	inactive
4	F5	4	-0.131	105	95.5	inactive
5	MYLK3	1	-0.126	56.2	51.5	inactive
6	MYLK3	2	-0.468	97.1	70.2	inactive
7	MYLK3	3	0.0796	43.4	45.8	inactive
8	MYLK3	4	-0.0595	84.7	81.3	inactive
9	ALOX15	1	-0.0649	93.4	89.2	inactive
10	ALOX15	2	-0.612	48.1	31.5	inactive
11	ALOX15	3	-0.00211	61.3	61.2	inactive
12	OR56B4	1	0.377	50.5	65.6	inactive
13	OR56B4	2	0.378	53.2	69.1	inactive
14	OR56B4	3	-0.339	123	97	inactive
15	OR56B4	4	0.00916	50.3	50.7	inactive
16	CD84	1	-0.512	100	70.2	inactive
17	CD84	2	-0.206	74.8	64.8	inactive
18	CD84	3	-0.402	38.6	29.2	inactive
19	CD84	4	-0.0347	82.4	80.4	inactive
20	ANO9	1	2.35	2.39	12.1	inactive
21	ANO9	2	-0.58	81.9	54.8	inactive
22	ANO9	3	-0.453	72.1	52.7	inactive
23	ANO9	4	0.0106	84	84.6	inactive
24	GLP2R	1	-0.544	103	70.5	inactive
25	GLP2R	2	-0.356	82.7	64.6	inactive
26	GLP2R	3	0.239	70.1	82.7	inactive
27	GLP2R	4	-0.175	98.5	87.3	inactive
28	ERCC2	1	-0.308	115	92.8	inactive
29	ERCC2	2	-0.3	44.1	35.9	inactive
30	ERCC2	3	-0.203	23.7	20.6	inactive
31	ERCC2	4	0.1	56	60	inactive
32	VRK2	1	-0.269	106	87.7	inactive
33	VRK2	2	-0.504	126	88.6	inactive
34	VRK2	3	0.372	74.7	96.7	inactive
35	VRK2	4	-0.0867	92.9	87.5	inactive
36	SLC12A2	1	-0.00204	101	100	inactive
37	SLC12A2	2	-0.0733	91.3	86.8	inactive
38	SLC12A2	3	0.0669	26.5	27.8	inactive
39	SLC12A2	4	-0.208	35.2	30.5	inactive
40	SFN	1	-0.31	115	93.1	inactive
41	SFN	2	-0.216	9.13	7.86	inactive
42	SFN	3	-0.609	55.7	36.5	inactive
43	SFN	4	0.333	64.3	81	inactive
44	HNF1B	1	-0.221	73.7	63.3	inactive
45	HNF1B	2	-0.211	80	69.1	inactive
46	HNF1B	3	-0.536	38.5	26.6	inactive
47	HNF1B	4	-0.374	65.9	50.9	inactive
48	KDM2B	1	-0.0552	86.1	82.9	inactive
49	KDM2B	2	-0.0154	93.3	92.3	inactive
50	KDM2B	3	0.0898	72.1	76.8	inactive
51	KDM2B	4	-0.154	104	93	inactive
52	MTHFD2	1	-0.502	80.5	56.9	inactive
53	MTHFD2	2	-0.738	93.4	56	inactive
54	MTHFD2	3	-0.391	13.9	10.6	inactive
55	MTHFD2	4	-0.271	76.4	63.3	inactive
56	PIAS1	1	-0.56	86.3	58.5	inactive
57	PIAS1	2	-0.168	94.2	83.9	inactive
58	PIAS1	3	-0.373	90.8	70.1	inactive
59	PIAS1	4	-0.271	99.7	82.6	inactive
60	SSR2	1	-0.0782	79.2	75	inactive
61	SSR2	2	0.141	113	125	inactive
62	SSR2	3	-0.261	86.6	72.2	inactive
63	SSR2	4	0.498	47	66.4	inactive
64	TXNDC2	1	-0.137	69.9	63.6	inactive
65	TXNDC2	2	0.159	37.7	42.1	inactive
66	TXNDC2	3	-0.0241	110	109	inactive
67	TXNDC2	4	0.3	67.9	83.6	inactive
68	TYK2	1	-0.128	93.1	85.2	inactive
69	TYK2	2	-0.468	82.9	60	inactive
70	TYK2	3	-0.0305	98.8	96.7	inactive
71	TYK2	4	-0.241	107	90.5	inactive
72	PAK5	1	-0.0355	98.8	96.4	inactive
73	PAK5	2	-0.669	60.2	37.8	inactive
74	PAK5	3	-0.158	74.6	66.9	inactive
75	PAK5	4	0.308	17.2	21.2	inactive
76	POMK	1	-0.481	70.3	50.3	inactive
77	POMK	2	-0.0327	114	111	inactive
78	POMK	3	-0.379	60.1	46.2	inactive
79	POMK	4	-0.577	31.5	21.1	inactive
80	STX1A	1	-0.0744	86.1	81.7	inactive
81	STX1A	2	-0.0913	94.6	88.8	inactive
82	STX1A	3	-0.197	130	113	inactive
83	STX1A	4	-0.236	61.6	52.3	inactive
84	PPP1R7	1	-0.233	88.1	74.9	inactive
85	PPP1R7	2	-0.377	112	85.9	inactive
86	PPP1R7	3	-0.16	98.7	88.3	inactive
87	PPP1R7	4	-0.245	89	75.1	inactive

Single entries from above:
Under “viability without drug (% of control)”, PIAS1 #3 is entered as 70.1
ERCC2 #4, viability with camptothecin (% of control) → 56
Entry of GLP2R #1 under “log2 vehicle/camptothecin viability”: -0.544
For “viability with camptothecin (% of control)”, F5 #1 shows 95.6
PAK5 #4, log2 vehicle/camptothecin viability: 0.308
